Assay results from PMC3899370.
These are yes or no findings as the source states them, for the method shown. In cells and extracts the contact can be indirect. Some binding calls cover weakened binding; strength is not graded here.

Protein sequences, listed by entry. Tags and fused reporters are not part of them. Lines headed by an entry give the natural chain unless they say otherwise; changes in a name come on top.
UniProt O95613: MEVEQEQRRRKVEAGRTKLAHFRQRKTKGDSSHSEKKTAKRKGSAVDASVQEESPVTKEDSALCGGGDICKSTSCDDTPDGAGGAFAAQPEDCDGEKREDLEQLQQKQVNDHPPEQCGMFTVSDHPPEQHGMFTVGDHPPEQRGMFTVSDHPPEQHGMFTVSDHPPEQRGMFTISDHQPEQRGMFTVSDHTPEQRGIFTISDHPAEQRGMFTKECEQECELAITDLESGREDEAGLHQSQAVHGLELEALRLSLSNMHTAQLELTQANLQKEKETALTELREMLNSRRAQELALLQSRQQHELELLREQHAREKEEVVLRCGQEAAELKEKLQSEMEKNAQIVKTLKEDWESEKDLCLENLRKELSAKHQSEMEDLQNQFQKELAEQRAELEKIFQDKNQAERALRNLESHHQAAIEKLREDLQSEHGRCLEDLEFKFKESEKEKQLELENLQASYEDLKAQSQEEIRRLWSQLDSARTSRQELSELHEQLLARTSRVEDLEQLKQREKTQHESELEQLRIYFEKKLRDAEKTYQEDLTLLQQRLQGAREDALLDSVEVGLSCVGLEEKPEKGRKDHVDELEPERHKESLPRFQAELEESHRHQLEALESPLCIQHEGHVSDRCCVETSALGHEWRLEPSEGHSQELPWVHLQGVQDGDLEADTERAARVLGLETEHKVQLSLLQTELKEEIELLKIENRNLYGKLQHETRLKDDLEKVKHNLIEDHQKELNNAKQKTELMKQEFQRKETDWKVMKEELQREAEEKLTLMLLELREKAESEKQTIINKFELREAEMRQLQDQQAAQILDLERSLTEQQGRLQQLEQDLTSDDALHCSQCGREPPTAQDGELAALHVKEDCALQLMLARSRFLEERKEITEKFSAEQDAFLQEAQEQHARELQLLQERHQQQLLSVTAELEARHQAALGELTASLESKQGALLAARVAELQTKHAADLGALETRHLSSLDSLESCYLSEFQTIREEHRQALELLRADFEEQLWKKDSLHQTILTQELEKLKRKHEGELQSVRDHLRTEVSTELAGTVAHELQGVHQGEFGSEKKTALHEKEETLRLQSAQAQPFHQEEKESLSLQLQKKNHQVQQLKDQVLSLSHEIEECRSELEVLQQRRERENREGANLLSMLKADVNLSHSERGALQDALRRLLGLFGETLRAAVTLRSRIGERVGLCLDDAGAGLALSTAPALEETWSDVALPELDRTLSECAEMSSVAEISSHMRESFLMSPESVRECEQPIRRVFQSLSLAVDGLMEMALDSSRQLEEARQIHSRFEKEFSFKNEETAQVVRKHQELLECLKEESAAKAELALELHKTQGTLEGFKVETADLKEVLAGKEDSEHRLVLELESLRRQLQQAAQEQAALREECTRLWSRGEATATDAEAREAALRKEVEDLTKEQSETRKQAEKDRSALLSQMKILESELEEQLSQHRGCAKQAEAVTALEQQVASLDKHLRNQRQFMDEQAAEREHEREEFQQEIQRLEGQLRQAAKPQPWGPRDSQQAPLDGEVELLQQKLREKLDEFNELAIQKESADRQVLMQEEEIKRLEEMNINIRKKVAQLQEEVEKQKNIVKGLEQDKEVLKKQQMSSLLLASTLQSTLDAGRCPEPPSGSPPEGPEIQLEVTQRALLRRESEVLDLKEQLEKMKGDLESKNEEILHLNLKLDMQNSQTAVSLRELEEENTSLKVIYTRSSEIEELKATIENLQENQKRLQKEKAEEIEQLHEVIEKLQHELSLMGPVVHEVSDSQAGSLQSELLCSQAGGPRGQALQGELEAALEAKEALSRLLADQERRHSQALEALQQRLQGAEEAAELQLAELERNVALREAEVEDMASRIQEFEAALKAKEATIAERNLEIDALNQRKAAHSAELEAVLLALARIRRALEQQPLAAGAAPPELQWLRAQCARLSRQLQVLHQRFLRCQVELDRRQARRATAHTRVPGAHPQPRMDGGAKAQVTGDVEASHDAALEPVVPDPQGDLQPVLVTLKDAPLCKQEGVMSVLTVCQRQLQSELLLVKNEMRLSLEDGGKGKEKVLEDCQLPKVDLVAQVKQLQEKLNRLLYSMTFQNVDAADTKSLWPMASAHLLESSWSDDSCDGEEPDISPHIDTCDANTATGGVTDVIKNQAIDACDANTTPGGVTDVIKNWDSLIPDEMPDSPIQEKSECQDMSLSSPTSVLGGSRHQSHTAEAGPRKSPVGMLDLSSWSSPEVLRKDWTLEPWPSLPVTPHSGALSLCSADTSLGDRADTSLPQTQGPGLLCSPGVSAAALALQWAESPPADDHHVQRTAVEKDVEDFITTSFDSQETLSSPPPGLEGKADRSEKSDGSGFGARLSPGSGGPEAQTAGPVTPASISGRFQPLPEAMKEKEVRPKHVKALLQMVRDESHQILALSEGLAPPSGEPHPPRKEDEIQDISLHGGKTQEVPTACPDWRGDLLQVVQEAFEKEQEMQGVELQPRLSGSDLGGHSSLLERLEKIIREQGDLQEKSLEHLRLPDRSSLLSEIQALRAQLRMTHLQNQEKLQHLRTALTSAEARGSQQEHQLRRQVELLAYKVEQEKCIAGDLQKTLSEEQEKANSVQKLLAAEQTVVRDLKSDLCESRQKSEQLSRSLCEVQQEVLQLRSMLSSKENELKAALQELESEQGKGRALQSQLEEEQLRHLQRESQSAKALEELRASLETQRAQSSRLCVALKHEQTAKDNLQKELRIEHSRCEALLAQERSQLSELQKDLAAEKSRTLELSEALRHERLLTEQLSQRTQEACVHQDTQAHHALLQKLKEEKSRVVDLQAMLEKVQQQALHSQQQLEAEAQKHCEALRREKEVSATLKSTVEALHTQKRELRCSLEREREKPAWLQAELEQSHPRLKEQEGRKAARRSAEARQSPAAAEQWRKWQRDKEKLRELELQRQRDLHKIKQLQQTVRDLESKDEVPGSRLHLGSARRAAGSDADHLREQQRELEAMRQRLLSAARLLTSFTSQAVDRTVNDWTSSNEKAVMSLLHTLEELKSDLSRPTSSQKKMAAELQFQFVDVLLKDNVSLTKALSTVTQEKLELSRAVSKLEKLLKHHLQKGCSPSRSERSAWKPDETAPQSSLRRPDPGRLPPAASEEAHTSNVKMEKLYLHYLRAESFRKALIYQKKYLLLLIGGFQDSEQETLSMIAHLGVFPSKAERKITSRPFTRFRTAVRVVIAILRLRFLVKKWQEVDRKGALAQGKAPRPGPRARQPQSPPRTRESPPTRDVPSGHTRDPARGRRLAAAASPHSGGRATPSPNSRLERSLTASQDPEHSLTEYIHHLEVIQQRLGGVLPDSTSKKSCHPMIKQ
UniProt Q96SN8: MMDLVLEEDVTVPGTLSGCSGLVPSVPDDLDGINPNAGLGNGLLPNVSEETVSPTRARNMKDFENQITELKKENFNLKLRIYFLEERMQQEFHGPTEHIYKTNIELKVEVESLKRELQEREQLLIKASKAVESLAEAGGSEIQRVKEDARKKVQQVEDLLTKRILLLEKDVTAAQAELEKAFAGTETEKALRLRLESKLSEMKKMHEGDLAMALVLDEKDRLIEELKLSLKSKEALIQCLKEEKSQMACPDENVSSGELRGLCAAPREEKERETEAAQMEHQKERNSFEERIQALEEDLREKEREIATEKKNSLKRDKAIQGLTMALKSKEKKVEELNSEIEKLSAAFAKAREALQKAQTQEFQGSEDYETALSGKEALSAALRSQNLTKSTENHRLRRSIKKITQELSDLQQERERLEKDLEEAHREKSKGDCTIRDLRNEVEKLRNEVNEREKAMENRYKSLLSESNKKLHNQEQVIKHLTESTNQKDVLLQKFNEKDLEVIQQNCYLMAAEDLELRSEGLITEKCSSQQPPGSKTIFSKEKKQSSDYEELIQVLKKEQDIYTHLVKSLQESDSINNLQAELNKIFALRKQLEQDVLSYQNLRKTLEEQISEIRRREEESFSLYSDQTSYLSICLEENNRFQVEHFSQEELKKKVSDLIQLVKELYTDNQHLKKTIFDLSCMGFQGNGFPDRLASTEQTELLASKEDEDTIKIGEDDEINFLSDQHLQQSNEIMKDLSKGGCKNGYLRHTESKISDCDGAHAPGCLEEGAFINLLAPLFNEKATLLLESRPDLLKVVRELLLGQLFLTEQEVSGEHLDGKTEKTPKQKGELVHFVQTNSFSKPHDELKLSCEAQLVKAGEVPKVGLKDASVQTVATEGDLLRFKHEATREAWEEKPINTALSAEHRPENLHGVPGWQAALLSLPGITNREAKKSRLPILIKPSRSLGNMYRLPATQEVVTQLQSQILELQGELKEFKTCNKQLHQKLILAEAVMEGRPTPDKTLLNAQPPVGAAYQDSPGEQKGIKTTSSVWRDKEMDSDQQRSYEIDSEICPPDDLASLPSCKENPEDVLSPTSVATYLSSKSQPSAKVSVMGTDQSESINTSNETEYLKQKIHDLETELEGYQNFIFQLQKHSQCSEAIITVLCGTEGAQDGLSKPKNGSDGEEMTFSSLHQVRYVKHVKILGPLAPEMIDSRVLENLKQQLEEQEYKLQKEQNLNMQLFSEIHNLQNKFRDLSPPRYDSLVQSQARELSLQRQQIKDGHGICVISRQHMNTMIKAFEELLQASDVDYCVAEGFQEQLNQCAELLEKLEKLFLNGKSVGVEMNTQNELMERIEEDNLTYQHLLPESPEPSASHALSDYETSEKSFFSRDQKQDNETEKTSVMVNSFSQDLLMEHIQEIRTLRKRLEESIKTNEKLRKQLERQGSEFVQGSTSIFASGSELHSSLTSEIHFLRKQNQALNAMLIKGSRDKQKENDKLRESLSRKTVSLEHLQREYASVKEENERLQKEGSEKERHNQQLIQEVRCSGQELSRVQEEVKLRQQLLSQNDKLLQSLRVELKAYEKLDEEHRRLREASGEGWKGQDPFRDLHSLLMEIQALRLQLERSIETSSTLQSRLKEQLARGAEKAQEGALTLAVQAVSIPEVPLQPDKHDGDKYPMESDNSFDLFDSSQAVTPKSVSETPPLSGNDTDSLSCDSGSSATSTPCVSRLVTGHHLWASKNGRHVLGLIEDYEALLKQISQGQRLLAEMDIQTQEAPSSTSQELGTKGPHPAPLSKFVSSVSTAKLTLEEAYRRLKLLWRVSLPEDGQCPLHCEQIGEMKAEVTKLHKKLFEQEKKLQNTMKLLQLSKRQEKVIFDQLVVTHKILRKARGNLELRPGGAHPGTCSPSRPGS

Columns and labels:
[1] = target: FLAG-PCNT (wild type) (human) (UniProt O95613); assay: co-IP; HEK293T cells transfected with FLAG-tagged constructs, STLC 16 h (mitotic); lysis in 25 mM Tris-HCl pH 7.4, 100 mM NaCl, 5 mM MgCl2, 5 mM NaF, 20 mM β-glycerophosphate, 0.5% NP-40; FLAG-M2 AffinityGel 1.5 h at 4°C; immunoblot of the endogenous partner
FLAG-PCNT^AA (human) = FLAG-PCNT^AA (human) (UniProt O95613); assay: as above

binding [1]: binds
binding (FLAG-PCNT^AA (human)): binds
Substance: CEP215 (endogenous) (from UniProt Q96SN8 1-1893)
